± gives the standard deviation. Only a part is listed here, and it is no random draw. The uncertainty is large for many entries.

This note sets out measurements from the supplement of paper PMC10338343.

For this assay, the system named is EfPiwi piRISC loaded with piRNA #1 (26 nt). Kind of assay: pre-steady-state target cleavage rate (min^-1); guide: piRNA #1 5'p-UGAGGUAGUAGGUUGUAUAGUAUCCA; MIWI and MILI are mouse PIWI proteins and EfPiwi is from a freshwater sponge; tags in brackets are library labels; higher = faster piRNA-guided slicing of the target. The conditions noted are these: auxiliary factor: 500 nM Ephydatia muelleri Gtsf1. The procedure, abridged: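 Cleave-'n-Seq reactions paired 0.1 nM transcribed, DNA-blocked target RNA library with 1 nM active affinity-purified piRISC holding one synthetic guide, plus or minus 500 nM GTSF1 partner protein, in HEPES–potassium acetate buffer at 33 °C for 0–8 or 0–960 min. After sequencing of uncleaved targets and normalisation to depth and weakly complementary targets, the pre-steady-state cleavage rate was taken from a burst-and-steady-state fit. Three trials were pooled, and k3 was capped at 0.0001 min^-1.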
In the case of GGAGUGGAUACUAUAAACCUACUACCUCA, the “pre-steady-state target cleavage rate” value worked out at 0.00225 ± 0.0037.

For the sequence GGAGAGGAUUCUAUACAACCUACAACCUCA, the “pre-steady-state target cleavage rate” value was found to be 0.00103 ± 0.0022.

For the sequence GGAGACCUAUCUAUACAACCUACUAACCUCA, the “pre-steady-state target cleavage rate” value turned out to be 0.00178 ± 0.0052.

Consider GGAGACCUAUGAUAAGAAGCUACUACCUCA, for which the “pre-steady-state target cleavage rate” value was 0.000521 ± 0.0073.

As to GGAGACCUAUGAUAUGGACCUACUACCUCA, the “pre-steady-state target cleavage rate” value came to 0.000904 ± 0.007.

As to GGAGACCUAUGAUAUGAAGCUACUACCUCA, the “pre-steady-state target cleavage rate” value stood at 0.00145 ± 0.0047.

As for GGAGACCUAUGAUUACAAGCAACUACCUCA, the “pre-steady-state target cleavage rate” value came to 0.00106 ± 0.007.

Turning to GGAGACCUAUGUAAUGAACCUACUACCUCA, the “pre-steady-state target cleavage rate” value is 0.001 ± 0.0067.

In the case of GGAGAGGAAACUAUUCAACCUACUACCUCA, the “pre-steady-state target cleavage rate” value came to 0.013 ± 0.0061.

Consider GGAGACCAUACUAUACAACCUAGUACGUCA, for which the “pre-steady-state target cleavage rate” value is 0.00483 ± 0.0024.

As to GGAGAGGAUACUAUACAACCUACUAGGACA, the “pre-steady-state target cleavage rate” value amounted to 0.00237 ± 0.0039.

Turning to GGAGACCUAUGAUUAGAACCUUCUACCUCA, the “pre-steady-state target cleavage rate” value was found to be 0.000183 ± 0.014.

With GGAGACGAUACUAUACAACCUUGAACCUCA, the “pre-steady-state target cleavage rate” value was found to be 0.0016 ± 0.0025.

In the case of GGAGCGGAUACUAUACAACCUACUACCUCA, the “pre-steady-state target cleavage rate” value stood at 0.141 ± 0.048.

For GGAGACCUUUCUAUACAAGCUACUACCUCA, the “pre-steady-state target cleavage rate” value was determined as 0.00336 ± 0.0038.

Turning to GGAGACCAUACUAUACAACGAACUACCUCA, the “pre-steady-state target cleavage rate” value turned out to be 0.00189 ± 0.0071.
